Laboratory results from the supplement of paper PMC6289059.
The other results are listed elsewhere or left out. Repeats are few or missing, and single values can be far off.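 The cells are hepatocyte-like cells grown from human stem cells in which the DGUOK gene was disrupted by CRISPR, a model of liver mtDNA depletion syndrome. Each well's ATP signal was scored against the other wells on its plate, and a drug counted as a primary hit when its score was 3 or higher.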

system: DGUOK Δ14/Δ5 iPSC-derived hepatocyte-like cells (SV20); assay: ATP level (CellTiter-Glo luminescence) Z score relative to plate distribution, under 2-DG glycolysis block; higher = more cellular ATP (rescue of mitochondrial ATP production); conditions: 5 µM; treatment time: day 15 to day 20 of differentiation (5 days); 2-deoxy-D-glucose: 20 mM for 24 h before assay

Structure (SMILES)	ATP level
COc1ccc2c(=O)c(-c3ccc(O)cc3)coc2c1	inactive: -1.04
COC(=O)CC1C(C)(C)C(OC(C)=O)[C@@H]2[C@@H](OC(C)=O)[C@]34O[C@@]2(O)[C@]1(C)C3CC[C@]1(C)C4=CC(=O)O[C@H]1c1ccoc1 (stereo partly specified)	inactive: -1.34
O=C(O)Cc1cc(I)c(Oc2cc(I)c(O)c(I)c2)c(I)c1	active: 3.1
CC1(C)O[C@@H]2C[C@H]3[C@@H]4CCC5=CC(=O)C=C[C@]5(C)[C@H]4[C@@H](O)C[C@]3(C)[C@]2(C(=O)CO)O1	inactive: 2.14
CCN(CC)CCOc1ccc2c(c1)C(=O)c1cc(OCCN(CC)CC)ccc1-2	inactive: -4.15
CN(Cc1cnc2nc(N)nc(N)c2n1)c1ccc(C(=O)NC(CCC(=O)O)C(=O)O)cc1 (racemic)	inactive: -4.29
Cc1cc2nc3ccc(=[N+](C)C)cc-3sc2cc1N	inactive: -8.64
C=C[C@@]1(C)CC(=O)[C@]2(O)[C@@]3(C)[C@@H](O)CCC(C)(C)[C@@H]3[C@H](O)[C@H](OC(C)=O)[C@@]2(C)O1	inactive: 2.05
C/C(=C(\CCOP(=O)(O)O)SC(=O)c1ccccc1)N(C=O)Cc1cnc(C)nc1N	inactive: 1.03
CCCCC(CC)COC(=O)C(C#N)=C(c1ccccc1)c1ccccc1 (stereo unspecified)	inactive: 1.23
Nc1c2c(nc3ccccc13)CCCC2	inactive: -4.34
COc1ccc(-c2coc3cc(O)ccc3c2=O)c(OC)c1OC	inactive: -0.391
O=c1cc(-c2ccccc2)oc2cc(O)cc(O)c12	inactive: -0.477
CC(C)=CCC/C(C)=C/CC/C(C)=C/CO	inactive: -1.11
Cc1c(C(=O)O)c(O)cc2c1C(=O)c1c(O)c([C@@H]3O[C@H](CO)[C@@H](O)[C@H](O)[C@H]3O)c(O)c(O)c1C2=O	inactive: -0.351
CC(C)(C)C(=O)C(Oc1ccc(Cl)cc1)n1ccnc1 (stereo unspecified)	inactive: -0.167
Cc1ccccc1OCC(O)CO (stereo unspecified)	inactive: -10.9
S=c1ccss1	inactive: -0.999
c1ccc2c(c1)CN1CCCC1=N2	inactive: -0.218
C[C@H](N)[C@H](O)c1cccc(O)c1	active: 3.37
CCN(CC)CCOC(=O)C(Cc1cccc2ccccc12)CC1CCCO1 (stereo unspecified)	inactive: -6.95

An excerpt of these results, with bars between the fields:
Structure (SMILES) | ATP level
S=c1ccss1 | inactive: -0.999
c1ccc2c(c1)CN1CCCC1=N2 | inactive: -0.218

(cont.)

Structure (SMILES)	ATP level
CC1(C)S[C@@H]2[C@H](NC(=O)C(C(=O)O)c3ccccc3)C(=O)N2[C@H]1C(=O)O (stereo partly specified)	inactive: -11.2
C=C[C@@H](C1=CC(=O)C(OC)=C(OC)C1=O)c1ccccc1	active: 4.44
O=C1CN(/N=C/c2ccc(-c3ccc([N+](=O)[O-])cc3)o2)C(=O)N1	inactive: 0.204
COc1cc(O)c2c(c1)C(=O)c1cc(C)cc(O)c1C2=O	inactive: 1.88
CCOC(=O)n1ccn(C)c1=S	inactive: 0.294
CC1(O)CCC(C(C)(C)O)CC1 (stereo unspecified)	inactive: 1.78
CC1(C)S[C@@H]2[C@H](NC(=O)[C@H](C(=O)O)c3ccsc3)C(=O)N2[C@H]1C(=O)O	inactive: 1.24
CN[C@@H]1[C@@H](O)[C@@H](O[C@@H]2[C@@H](O)[C@H](O[C@H]3OC(CN)=CC[C@H]3N)[C@@H](N)C[C@H]2N)OC[C@]1(C)O	inactive: -1.01
C=C[C@](C)(O)CCC=C(C)C	inactive: 0.294
CCCCC(CC)COC(=O)C=Cc1ccc(OC)cc1 (stereo unspecified)	inactive: 0.146
CC(C)c1c(O)ccc2c1CC[C@H]1C(C)(C)CCC[C@]21C	inactive: 0.0749
CCCC1O[C@@H]2C[C@H]3[C@@H]4CCC5=CC(=O)C=C[C@]5(C)[C@H]4[C@@H](O)C[C@]3(C)[C@]2(C(=O)CO)O1 (stereo partly specified)	inactive: -5.35
COc1cc(/C=C/c2ccc(O)cc2)cc(OC)c1	inactive: -4.02
CCOC(=O)c1ncn2c1CN(C)C(=O)c1cc(F)ccc1-2	inactive: 1.3
O=NN(CCCl)C(=O)NCCCl	active: 3.4
CC1=C(/C=C/C(C)=C/C=C/C(C)=C/C=C/C=C(C)/C=C/C=C(C)/C=C/C2=C(C)C(=O)CCC2(C)C)C(C)(C)CCC1=O [CANTHAXANTHIN (euglenanone)]	inactive: 0.816
Cl.NCCCC[C@H](N)C(=O)O	inactive: 1.53
Nc1nc(N)c2nc(CNc3ccc(C(=O)N[C@@H](CCC(=O)O)C(=O)O)cc3)cnc2n1	inactive: -2.94
C#C[C@]1(O)CC[C@H]2[C@@H]3CCc4cc(O)ccc4[C@H]3CC[C@@]21C	inactive: -2.63
CC(C)=CC1C(CO)C1(C)C (stereo unspecified)	inactive: 0.382
Cc1occc(=O)c1O	inactive: -1.44

Structure (SMILES)	ATP level
CC1(C)CC23C(=O)CCC(O)C2(C)CCC13 (stereo unspecified)	inactive: 0.164
CCC(C(N)=O)c1ccccc1 (stereo unspecified)	inactive: -8.1
COc1cc2c(cc1OC)C1(O)C(=O)c3ccc(O)c(C(=O)O)c3OC1CO2 (stereo unspecified)	inactive: -0.287
CCOc1cc(CC(=O)N[C@@H](CC(C)C)c2ccccc2N2CCCCC2)ccc1C(=O)O	active: 6.88
C#CCCCCCCCCCCCC(O)CC(O)COC(C)=O (stereo unspecified)	inactive: -1.26
COc1ncnc(NS(=O)(=O)c2ccc(N)cc2)c1OC	inactive: 2.63
CC1(C)C(=O)C=CC2(C)C1C=CC1(C)C2CCC2(C)C(c3ccoc3)OC(=O)C3OC312 (stereo unspecified)	inactive: -2.14
CC(=O)OCC(=O)[C@@]1(O)[C@H](C)C[C@H]2[C@@H]3CCC4=CC(=O)C=C[C@]4(C)[C@@]3(F)[C@@H](O)C[C@@]21C	inactive: 2.31
CC1(C)CCC[C@]2(C)[C@H]3CC(=O)O[C@]3(C)CC[C@@H]12	inactive: 1.28
COc1ccc(C(=O)c2ccccc2)c(O)c1	inactive: -0.447
COc1c(N2C[C@@H]3CCCN[C@@H]3C2)c(F)cc2c(=O)c(C(=O)O)cn(C3CC3)c12	inactive: -3.21
COc1ccc(C(=O)CC(=O)c2ccc(C(C)(C)C)cc2)cc1	inactive: 1.51
NCCSSCCN	inactive: 0.423
CC1(C)C(=O)[C@H]2C[C@]3(O)C4=CC(=O)O[C@@H](c5ccoc5)[C@@]4(C)CCC3[C@](C)(C2=O)[C@H]1CC(=O)O (stereo partly specified)	inactive: 1.59
Nc1nc2c(ncn2COCCO)c(=O)[nH]1	inactive: 1.84
O=c1cc(-c2ccccc2O)oc2cc(O)ccc12	inactive: -0.256
CC(C)NCC(O)c1ccc(O)c(O)c1 (stereo unspecified)	inactive: -0.458
COc1ccc2[nH]c([S@@+]([O-])Cc3ncc(C)c(OC)c3C)nc2c1	inactive: 1.85
CCCCCC(=O)O[C@]1(C(C)=O)CC[C@H]2[C@@H]3CCC4=CC(=O)CC[C@]4(C)[C@H]3CC[C@@]21C	inactive: 0.283
O=C(O[C@@H]1Cc2c(O)cc(O)cc2O[C@@H]1c1ccc(O)c(O)c1)c1cc(O)c(O)c(O)c1	inactive: 1.89
OC(c1cc(C(F)(F)F)nc2c(C(F)(F)F)cccc12)C1CCCCN1 (stereo unspecified)	inactive: -18.5

Structure (SMILES)	ATP level
CNCCCC12CCC(c3ccccc31)c1ccccc12	inactive: -1.33
CC[C@H]1OC(=O)C[C@@H](O)[C@H](C)[C@@H](O[C@@H]2O[C@H](C)[C@@H](O)[C@H](N(C)C)[C@H]2O)[C@@H](CCN2C[C@H](C)C[C@H](C)C2)C[C@@H](C)C(=O)/C=C/C(C)=C/[C@@H]1CO[C@@H]1O[C@H](C)[C@@H](O)[C@@H](OC)[C@H]1OC	inactive: -1.03
C=CC1(C)CC(=O)C2(O)C(C)(O1)C(O)C(O)C1C(C)(C)CCC(O)C12C (stereo unspecified)	inactive: 2.4
Cc1coc2c1C(=O)C(=O)c1c-2ccc2c1CCCC2(C)C	inactive: -4.63
C[C@]12C=CC(=O)C=C1CC[C@H]1[C@@H]3C[C@@H](O)[C@](O)(C(=O)CO)[C@@]3(C)C[C@H](O)[C@@]12F	inactive: 1.51
CC1(C)O[C@@H]2C[C@H]3[C@@H]4CCC5=CC(=O)CC[C@]5(C)[C@@]4(F)[C@@H](O)C[C@]3(C)[C@]2(C(=O)CCl)O1	active: 3.31
CCN(CC)C(=O)/C(C#N)=C/c1cc(O)c(O)c([N+](=O)[O-])c1	inactive: 0.445
C[C@@H]1O[C@@H](OC[C@H]2O[C@@H](Oc3c(-c4ccc(OCCO)c(OCCO)c4)oc4cc(OCCO)cc(O)c4c3=O)[C@H](O)[C@@H](O)[C@@H]2O)[C@H](O)[C@H](O)[C@H]1O	inactive: -8.17
C[C@@H](O)[C@H]1C(=O)N2C(C(=O)O)=C(S[C@@H]3CN[C@H](C(=O)N(C)C)C3)[C@H](C)[C@H]12	inactive: 2.07
O=C(O)[C@H](O)[C@@H](O)[C@H](O[C@@H]1O[C@H](CO)[C@H](O)[C@H](O)[C@H]1O)[C@H](O)CO	inactive: 1.7
COc1ccc(C(=O)O)c(O)c1OC	inactive: 1.6
Cc1cc(C)cc(OCC2CNC(=O)O2)c1 (stereo unspecified)	inactive: -1.47
CC(=O)O[C@H]1C[C@@H]2CC[C@@H]3[C@H](CC[C@@]4(C)[C@H]3C[C@H]([N+]3(C)CCCCC3)[C@@H]4OC(C)=O)[C@@]2(C)C[C@@H]1N1CCCCC1	inactive: 0.952
C=Cc1c(C)c2[n-]c1=CC1=NC(=CC3=C(C)C(=C([O-])[O-])C(=N3)C(CC(=O)[O-])=C3N=C(C=2)C(C)C3CCC(=O)[O-])C(CC)=C1C.[Cu+2].[Na+].[Na+].[Na+] (stereo unspecified)	active: 3.2
C[C@H]1O[C@@H](n2cc(F)c(=O)[nH]c2=O)[C@H](O)[C@@H]1O	inactive: 1.6
O=c1c(-c2ccc(O)cc2)coc2cc(O)ccc12	inactive: -0.777
CC1(C)CC[C@]2(C(=O)O)CC[C@]3(C)C(=CC[C@@H]4[C@@]5(C)CC[C@H](O)C(C)(C)[C@@H]5CC[C@]43C)[C@@H]2C1	inactive: -2.75
CN1C(=O)OC(C)(C)C1=O	inactive: 0.885

Compounds from the list above containing a nitro group on carbon (2):
Structure (SMILES)	ATP level
O=C1CN(/N=C/c2ccc(-c3ccc([N+](=O)[O-])cc3)o2)C(=O)N1	inactive: 0.204
CCN(CC)C(=O)/C(C#N)=C/c1cc(O)c(O)c([N+](=O)[O-])c1	inactive: 0.445
